Measurements from PubChem BioAssay AID256 (DTP/NCI, 2004).
The list is a part of this screen's results and no random one: it is rich in T/C values a quarter to a half above the control, in often repeated tests (any T/C) and in doses without a T/C. Further doses and runs are listed elsewhere. T/C: endpoint of the treated group in % of that of the vehicle group. Some entries give survivors of the animals treated and no T/C: the source files T/C as zero there, which appears to mark a toxic dose or a test without result, not a measured value. Some doses without a T/C left all or most animals alive at the check, yet need not have been tolerated: the source hardly ever lists a survival T/C far under the control, and the zero likely stands for such cases as well. Survivors were counted at the toxicity check, usually on the fifth day, unless a day is given; later deaths do not show. Schedule codes are those of the source, read here as Q, the interval in days (D) or hours (H), X, the number of doses. Some entries hold several experiments; the results are listed from low to high. For survival time, this PubChem deposit counts one and a half times the control or more as active, and values a quarter to a half above the control carry no call in these data; other NCI protocols may use other cut-offs. Some T/C values are followed by the survivors on the day toxicity was checked, most often the fifth; without a count, all were alive then.

Tested on: CD2F1 mice, L1210 leukemia ip, survival T/C
Assay: NCI In Vivo Anticancer Drug Screen. Data for tumor model L1210 Leukemia (intraperitoneal) in CD2F1 (CDF1) mice
Details: T/C endpoint: mean survival time, higher T/C = longer survival
How it was run: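 Antitumor effect is scored in animals hosting a serially transplanted tumor. Values compare compound-dosed animals against vehicle-only controls as a simple quotient.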

[1] = dose: 50.0 mg/kg/injection, schedule: Q01DX009 (ip), vehicle: saline
[2] = dose: 200.0 mg/kg/injection, schedule: Q01DX009 (ip), vehicle: saline with Tween-80
[3] = dose: 400.0 mg/kg/injection, schedule: Q01DX009 (ip), vehicle: saline with Tween-80
[4] = dose: 12.5 mg/kg/injection, schedule: Q01DX005 (ip), vehicle: other
[5] = dose: 400.0 mg/kg/injection, schedule: Q04DX003 (ip), vehicle: saline with Tween-80

CCCC(C)CC1CCC(N)CC1 (stereo not drawn)
survivor count (dose: 400.0 mg/kg/injection, schedule: Q04DX002 (ip), vehicle: saline): 1 of 3

[O]=[Mo]
survivor count (dose: 200.0 mg/kg/injection, schedule: Q04DX003 (ip), vehicle: saline): 4 of 6 | survivor count (dose: 400.0 mg/kg/injection, schedule: Q04DX003 (ip), vehicle: saline): 1 of 6

C1CSC(=[N+]2CC[N+](=C3SCCS3)CC2)S1
survivor count [1]: 0 of 3 | survivor count (dose: 100.0 mg/kg/injection, schedule: Q04DX002 (ip), vehicle: saline): 0 of 3

CCOC(=O)C(C(=O)COC)C(=O)OCC
survivor count (dose: 400.0 mg/kg/injection, schedule: Q01DX009 (ip), vehicle: water): 3 of 6

Cc1ccc2c(C)nc(N=C(N)N)nc2c1
survivor count (dose: 75.0 mg/kg/injection, schedule: Q01DX009 (ip), vehicle: saline): 0 of 6

COC1=C(OC)C(=O)C(SCc2ccc(OC)cc2)=CC1=O
survivor count (dose: 50.0 mg/kg/injection, schedule: Q01DX009 (ip), vehicle: saline with Tween-80): 0 of 3 | survivor count (dose: 100.0 mg/kg/injection, schedule: Q01DX009 (ip), vehicle: saline with Tween-80): 0 of 3 | survivor count [2]: 0 of 3

Nc1ccccc1O
survivor count [3]: 2 of 6

Cc1cn(C2CC3[O][Sn]([c]4ccccc4)([c]4ccccc4)[O]CC3O2)c(=O)[nH]c1=O (stereo not drawn)
survivor count (dose: 0.75 mg/kg/injection, schedule: Q01DX005 (ip), vehicle: saline): 6 of 6 | survivor count (dose: 6.0 mg/kg/injection, schedule: Q01DX005 (ip), vehicle: other): 6 of 6 | T/C [4]: 102 [5 of 6 alive], 107, 167 % of control | survivor count [4]: 3 of 6 | survivor count (dose: 25.0 mg/kg/injection, schedule: Q01DX005 (ip), vehicle: other): 0 of 6, 1 of 6, 6 of 6 | survivor count (dose: 50.0 mg/kg/injection, schedule: Q01DX005 (ip), vehicle: other): 0 of 6 | survivor count (dose: 100.0 mg/kg/injection, schedule: Q01DX005 (ip), vehicle: other): 0 of 6 | survivor count (dose: 200.0 mg/kg/injection, schedule: Q01DX005 (ip), vehicle: other): 0 of 6

COC(/C=C\C(OC)OC)OC
survivor count [1]: 2 of 6

COc1cc(CN(C)CCO)ccc1OCc1ccccc1
survivor count [5]: 0 of 6

O=S(=O)(OCC(COS(=O)(=O)c1ccccc1)(COS(=O)(=O)c1ccccc1)COS(=O)(=O)c1ccccc1)c1ccccc1
survivor count [5]: 6 of 6

CC(=O)OC1COC(n2nnc(C#N)c2C#N)C(OC(C)=O)C1OC(C)=O (stereo not drawn)
survivor count (dose: 200.0 mg/kg/injection, schedule: Q01DX005 (ip), vehicle: distilled water + Tween-80): 3 of 6

CC(C)CC(NC(=O)C(C)NC(=O)OCc1ccccc1)C(N)=O (stereo not drawn)
survivor count [2]: 6 of 6 | survivor count [3]: 6 of 6

CCOC(=O)C(C)(C)Br
survivor count [2]: 2 of 6

CCN(CC)C(=S)N1C(=O)C2C3CCC(O3)C2C1=O (stereo not drawn)
survivor count (dose: 50.0 mg/kg/injection, schedule: Q04DX002 (ip), vehicle: saline with Tween-80): 1 of 3 | survivor count (dose: 100.0 mg/kg/injection, schedule: Q04DX002 (ip), vehicle: saline with Tween-80): 0 of 3
